Results from the supplement of paper PMC10849652.
The list shows a part of the results.

Protein sequences, listed by entry. Tags and fused reporters are not part of them. Lines headed by an entry give the natural chain unless they say otherwise; changes in a name come on top.
UniProt Q92688: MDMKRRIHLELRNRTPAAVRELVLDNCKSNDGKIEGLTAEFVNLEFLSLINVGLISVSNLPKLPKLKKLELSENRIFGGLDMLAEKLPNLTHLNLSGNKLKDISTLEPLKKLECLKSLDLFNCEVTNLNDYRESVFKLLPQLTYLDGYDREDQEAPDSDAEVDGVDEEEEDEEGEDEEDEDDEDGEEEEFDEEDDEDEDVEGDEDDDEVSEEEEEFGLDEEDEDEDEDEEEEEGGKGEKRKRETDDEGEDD
UniProt P84077: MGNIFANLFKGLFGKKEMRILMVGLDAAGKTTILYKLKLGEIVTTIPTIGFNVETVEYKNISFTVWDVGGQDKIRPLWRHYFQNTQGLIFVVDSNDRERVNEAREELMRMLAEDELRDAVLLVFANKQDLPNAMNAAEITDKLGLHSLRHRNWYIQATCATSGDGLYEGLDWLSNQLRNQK
UniProt P02647, whole entry, looked up: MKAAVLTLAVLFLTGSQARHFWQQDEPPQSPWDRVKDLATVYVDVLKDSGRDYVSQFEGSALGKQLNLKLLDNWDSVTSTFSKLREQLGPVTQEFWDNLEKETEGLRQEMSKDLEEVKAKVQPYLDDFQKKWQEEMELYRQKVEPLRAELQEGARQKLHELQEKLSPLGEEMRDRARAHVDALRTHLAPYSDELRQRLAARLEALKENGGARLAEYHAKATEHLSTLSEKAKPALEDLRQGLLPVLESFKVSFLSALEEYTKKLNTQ
UniProt O43299: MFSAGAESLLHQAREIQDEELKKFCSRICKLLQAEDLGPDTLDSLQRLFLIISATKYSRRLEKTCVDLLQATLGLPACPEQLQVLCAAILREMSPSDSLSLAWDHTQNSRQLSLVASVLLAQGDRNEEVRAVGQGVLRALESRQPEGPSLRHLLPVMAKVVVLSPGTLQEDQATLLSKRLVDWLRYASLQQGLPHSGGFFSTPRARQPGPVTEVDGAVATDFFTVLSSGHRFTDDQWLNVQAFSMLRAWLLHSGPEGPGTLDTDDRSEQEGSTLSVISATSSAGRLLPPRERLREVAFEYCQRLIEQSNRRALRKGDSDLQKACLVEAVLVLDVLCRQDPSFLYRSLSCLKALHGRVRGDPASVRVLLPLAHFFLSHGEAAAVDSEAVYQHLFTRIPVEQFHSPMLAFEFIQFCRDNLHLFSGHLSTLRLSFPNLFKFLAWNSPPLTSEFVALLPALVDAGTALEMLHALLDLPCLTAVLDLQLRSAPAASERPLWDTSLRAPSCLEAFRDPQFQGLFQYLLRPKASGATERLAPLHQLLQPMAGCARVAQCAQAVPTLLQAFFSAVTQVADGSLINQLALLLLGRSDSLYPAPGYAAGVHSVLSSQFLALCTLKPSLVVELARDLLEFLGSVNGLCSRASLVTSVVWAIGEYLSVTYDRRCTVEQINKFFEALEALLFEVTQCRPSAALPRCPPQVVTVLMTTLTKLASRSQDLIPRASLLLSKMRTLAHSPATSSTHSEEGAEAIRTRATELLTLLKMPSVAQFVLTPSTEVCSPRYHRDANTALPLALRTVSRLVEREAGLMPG
UniProt Q9BUR5: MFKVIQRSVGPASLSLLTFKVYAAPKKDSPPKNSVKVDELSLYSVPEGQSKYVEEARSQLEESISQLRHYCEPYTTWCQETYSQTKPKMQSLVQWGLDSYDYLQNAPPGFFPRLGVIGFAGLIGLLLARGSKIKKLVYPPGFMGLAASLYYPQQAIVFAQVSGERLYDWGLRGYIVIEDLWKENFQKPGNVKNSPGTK
UniProt Q6UXV4: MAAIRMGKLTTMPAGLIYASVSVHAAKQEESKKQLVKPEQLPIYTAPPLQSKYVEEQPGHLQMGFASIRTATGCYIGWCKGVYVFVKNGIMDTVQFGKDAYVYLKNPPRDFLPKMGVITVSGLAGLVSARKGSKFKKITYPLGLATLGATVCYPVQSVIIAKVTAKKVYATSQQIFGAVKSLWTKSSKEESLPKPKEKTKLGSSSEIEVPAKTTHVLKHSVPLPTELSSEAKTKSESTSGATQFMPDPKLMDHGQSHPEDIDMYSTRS
UniProt Q96CW1: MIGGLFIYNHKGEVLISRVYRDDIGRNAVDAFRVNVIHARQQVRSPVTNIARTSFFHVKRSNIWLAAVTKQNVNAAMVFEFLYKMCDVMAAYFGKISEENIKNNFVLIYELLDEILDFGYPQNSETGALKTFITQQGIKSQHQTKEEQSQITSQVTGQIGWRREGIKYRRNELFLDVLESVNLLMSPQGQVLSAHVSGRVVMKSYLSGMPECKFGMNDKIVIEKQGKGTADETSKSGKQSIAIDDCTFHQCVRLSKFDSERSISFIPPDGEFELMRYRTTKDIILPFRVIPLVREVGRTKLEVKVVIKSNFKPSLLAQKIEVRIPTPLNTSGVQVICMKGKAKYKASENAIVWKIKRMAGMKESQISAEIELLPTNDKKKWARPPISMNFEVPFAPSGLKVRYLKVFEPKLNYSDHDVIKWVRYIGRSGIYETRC
UniProt O14617: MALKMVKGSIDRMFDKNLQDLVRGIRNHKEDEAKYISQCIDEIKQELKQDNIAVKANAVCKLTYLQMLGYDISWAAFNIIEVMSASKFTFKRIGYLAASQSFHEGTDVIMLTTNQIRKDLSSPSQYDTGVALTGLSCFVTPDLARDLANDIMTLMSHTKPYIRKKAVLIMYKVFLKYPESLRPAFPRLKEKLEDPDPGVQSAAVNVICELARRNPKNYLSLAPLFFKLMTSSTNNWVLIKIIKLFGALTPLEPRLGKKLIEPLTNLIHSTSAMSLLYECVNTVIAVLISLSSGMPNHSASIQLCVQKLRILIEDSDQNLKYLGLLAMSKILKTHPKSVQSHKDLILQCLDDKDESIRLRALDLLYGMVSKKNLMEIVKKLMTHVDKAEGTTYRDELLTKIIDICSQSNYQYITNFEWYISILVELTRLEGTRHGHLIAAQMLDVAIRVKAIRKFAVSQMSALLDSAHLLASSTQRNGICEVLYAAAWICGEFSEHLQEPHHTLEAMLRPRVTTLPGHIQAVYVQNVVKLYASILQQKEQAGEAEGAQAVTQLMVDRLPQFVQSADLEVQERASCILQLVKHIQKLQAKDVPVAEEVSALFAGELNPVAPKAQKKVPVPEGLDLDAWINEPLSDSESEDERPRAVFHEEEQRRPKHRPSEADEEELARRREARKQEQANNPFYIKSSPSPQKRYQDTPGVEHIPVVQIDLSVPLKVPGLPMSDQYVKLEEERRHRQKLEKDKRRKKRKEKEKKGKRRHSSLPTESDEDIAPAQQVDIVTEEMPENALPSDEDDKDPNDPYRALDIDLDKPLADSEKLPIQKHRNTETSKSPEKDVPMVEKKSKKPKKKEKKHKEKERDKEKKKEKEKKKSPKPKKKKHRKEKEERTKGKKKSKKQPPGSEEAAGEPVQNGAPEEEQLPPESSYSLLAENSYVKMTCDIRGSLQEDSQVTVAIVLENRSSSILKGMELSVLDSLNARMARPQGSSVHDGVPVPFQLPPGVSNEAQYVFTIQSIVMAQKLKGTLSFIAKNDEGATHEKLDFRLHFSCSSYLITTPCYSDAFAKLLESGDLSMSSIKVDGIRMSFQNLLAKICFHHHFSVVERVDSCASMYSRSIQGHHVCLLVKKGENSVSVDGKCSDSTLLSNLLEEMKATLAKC
UniProt Q9BTT0: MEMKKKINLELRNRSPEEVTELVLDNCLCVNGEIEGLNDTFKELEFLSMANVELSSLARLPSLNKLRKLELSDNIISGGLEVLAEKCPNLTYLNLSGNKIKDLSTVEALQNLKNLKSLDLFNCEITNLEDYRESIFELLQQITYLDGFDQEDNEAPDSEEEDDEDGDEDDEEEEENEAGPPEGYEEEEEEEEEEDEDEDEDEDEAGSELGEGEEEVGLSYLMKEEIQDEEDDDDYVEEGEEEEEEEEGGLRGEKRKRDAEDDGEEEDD
UniProt Q06481, whole entry, looked up: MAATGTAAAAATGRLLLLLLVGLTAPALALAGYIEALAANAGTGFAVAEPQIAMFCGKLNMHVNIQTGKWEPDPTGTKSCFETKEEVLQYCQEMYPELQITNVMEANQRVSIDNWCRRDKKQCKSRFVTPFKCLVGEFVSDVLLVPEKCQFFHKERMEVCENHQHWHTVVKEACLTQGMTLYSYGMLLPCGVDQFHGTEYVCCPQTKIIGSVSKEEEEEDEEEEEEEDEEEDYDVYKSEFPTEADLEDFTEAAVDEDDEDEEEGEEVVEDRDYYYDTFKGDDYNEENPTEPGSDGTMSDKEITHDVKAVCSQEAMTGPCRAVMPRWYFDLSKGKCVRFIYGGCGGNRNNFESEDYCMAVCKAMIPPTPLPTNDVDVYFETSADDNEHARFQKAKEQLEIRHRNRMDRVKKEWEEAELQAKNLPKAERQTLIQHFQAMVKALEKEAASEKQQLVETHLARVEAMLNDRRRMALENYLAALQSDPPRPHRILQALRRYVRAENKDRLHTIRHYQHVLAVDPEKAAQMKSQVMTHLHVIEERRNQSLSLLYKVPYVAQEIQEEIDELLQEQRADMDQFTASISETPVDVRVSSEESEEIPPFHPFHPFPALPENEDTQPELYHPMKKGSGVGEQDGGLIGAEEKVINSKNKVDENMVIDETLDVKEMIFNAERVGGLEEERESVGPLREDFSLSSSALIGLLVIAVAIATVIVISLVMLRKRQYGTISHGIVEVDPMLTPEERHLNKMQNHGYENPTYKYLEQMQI
UniProt P50995, whole entry, looked up: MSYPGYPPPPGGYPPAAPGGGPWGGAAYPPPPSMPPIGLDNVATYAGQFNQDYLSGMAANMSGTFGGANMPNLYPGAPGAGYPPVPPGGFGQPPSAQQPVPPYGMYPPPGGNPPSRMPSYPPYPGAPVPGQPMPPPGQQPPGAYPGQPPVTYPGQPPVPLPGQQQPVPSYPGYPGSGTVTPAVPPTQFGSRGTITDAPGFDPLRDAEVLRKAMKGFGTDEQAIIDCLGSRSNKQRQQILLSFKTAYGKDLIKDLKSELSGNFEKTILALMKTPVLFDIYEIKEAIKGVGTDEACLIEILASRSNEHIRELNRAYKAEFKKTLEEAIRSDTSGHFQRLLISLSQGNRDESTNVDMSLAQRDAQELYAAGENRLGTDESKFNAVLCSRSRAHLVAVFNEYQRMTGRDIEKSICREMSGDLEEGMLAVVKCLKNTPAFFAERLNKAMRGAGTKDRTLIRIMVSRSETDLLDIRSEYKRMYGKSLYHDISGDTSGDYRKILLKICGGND
UniProt P27695, whole entry, looked up: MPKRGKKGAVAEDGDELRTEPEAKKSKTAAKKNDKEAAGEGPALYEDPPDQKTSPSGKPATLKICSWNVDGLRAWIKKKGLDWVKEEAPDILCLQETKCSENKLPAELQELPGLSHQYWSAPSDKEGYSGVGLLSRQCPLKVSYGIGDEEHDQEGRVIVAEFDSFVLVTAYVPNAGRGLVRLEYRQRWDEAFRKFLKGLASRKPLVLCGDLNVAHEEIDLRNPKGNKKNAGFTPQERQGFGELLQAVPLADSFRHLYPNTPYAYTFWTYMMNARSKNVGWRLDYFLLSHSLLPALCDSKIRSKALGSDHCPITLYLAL
UniProt Q8N6H7: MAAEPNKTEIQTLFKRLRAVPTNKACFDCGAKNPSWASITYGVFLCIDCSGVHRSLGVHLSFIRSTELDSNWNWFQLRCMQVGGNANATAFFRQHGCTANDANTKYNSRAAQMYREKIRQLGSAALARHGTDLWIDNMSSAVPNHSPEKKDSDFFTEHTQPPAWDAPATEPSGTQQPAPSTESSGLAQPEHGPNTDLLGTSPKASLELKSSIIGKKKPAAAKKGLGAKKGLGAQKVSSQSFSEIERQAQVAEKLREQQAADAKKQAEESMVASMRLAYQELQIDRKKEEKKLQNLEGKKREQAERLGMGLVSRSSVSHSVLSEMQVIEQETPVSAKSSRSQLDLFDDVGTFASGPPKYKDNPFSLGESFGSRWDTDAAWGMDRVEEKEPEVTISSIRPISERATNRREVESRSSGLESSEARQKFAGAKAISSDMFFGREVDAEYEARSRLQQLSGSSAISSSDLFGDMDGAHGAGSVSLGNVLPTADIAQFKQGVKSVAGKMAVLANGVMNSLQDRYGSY
UniProt P04083: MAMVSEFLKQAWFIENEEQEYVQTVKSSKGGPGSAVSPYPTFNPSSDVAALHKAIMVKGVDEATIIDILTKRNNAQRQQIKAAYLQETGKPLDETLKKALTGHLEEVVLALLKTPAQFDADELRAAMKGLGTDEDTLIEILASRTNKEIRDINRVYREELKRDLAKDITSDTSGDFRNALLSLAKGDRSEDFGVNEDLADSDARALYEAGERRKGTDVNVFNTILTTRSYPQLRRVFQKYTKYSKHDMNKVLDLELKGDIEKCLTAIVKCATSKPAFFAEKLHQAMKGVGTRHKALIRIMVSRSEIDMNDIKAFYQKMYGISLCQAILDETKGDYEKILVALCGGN
UniProt P62330: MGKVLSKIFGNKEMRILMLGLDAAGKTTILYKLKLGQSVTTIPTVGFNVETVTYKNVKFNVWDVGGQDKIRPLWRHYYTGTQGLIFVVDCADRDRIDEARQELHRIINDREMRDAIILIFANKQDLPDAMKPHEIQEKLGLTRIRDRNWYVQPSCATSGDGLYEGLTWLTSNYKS

Columns and labels:
Assay in all cases: log2 fold change, soluble protein after heating vs DMSO (PISA); higher = thermal stabilisation; K562 cells, 10 uM, 30 min; active = over 0.2 and 3.5 SD of the protein, either way, in both replicates (recomputed)
[1] = compound: CC1=C(C=C(C=C1)NC(=O)C2=CC(=CC=C2)C(C)(C)C#N)NC3=CC4=C(C=C3)N=CN(C4=O)C
Summary of the method: (§1)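 Values are thermal stability changes relative to control samples and are taken from duplicates. They are stated as log2 fold changes. Before quantification by TMTpro 16plex LC-MS/MS with equalised channel sums, K562 cells at 2×10^6 cells/mL were treated with 10 μM compound for 30 min, heated in aliquots for 3 min across 48°C-58°C, pooled, extracted in PBS with 0.5% NP-40 at 4°C, and centrifuged at 21,000xg for 90 min to give the soluble supernatant.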

[2] = compound: CC1=C(C=C(C=C1)NC(=O)C2=CC(=CC=C2)N(C)C)NC(=O)C3=CC=C(C=C3)O
Summary of the method: as §1

[3] = compound: CC1=CC=C(C=C1)SC2=C3C=C(SC3=CN=C2)C(=O)N
Summary of the method: as §1

[4] = compound: CC1=NC(=CC=C1)C2=C(N=C(N2)C(C)(C)C)C3=CC4=NC=CN=C4C=C3
Summary of the method: as §1

Nexturastat A = compound: CCCCN(Cc1ccc(C(=O)NO)cc1)C(=O)Nc1ccccc1 [Nexturastat A]
Summary of the method: as §1

vemurafenib = compound: CCCS(=O)(=O)Nc1ccc(F)c(C(=O)c2c[nH]c3ncc(-c4ccc(Cl)cc4)cc23)c1F [vemurafenib]
Summary of the method: as §1

[5] = compound: CCCS(=O)(=O)Nc1ccc(F)c(C(=O)c2c[nH]c3ncc(Cl)cc23)c1F
Summary of the method: as §1

[6] = compound: CCCc1cc(C)[nH]c(=O)c1CNC(=O)c1cc(-c2ccnc(N3CCN(C)CC3)c2)cc2c1cnn2C(C)C
Summary of the method: as §1

givinostat = compound: CCN(CC)Cc1ccc2cc(COC(=O)Nc3ccc(C(=O)NO)cc3)ccc2c1 [givinostat]
Summary of the method: as §1

barasertib = compound: CCN(CCCOc1ccc2c(Nc3cc(CC(=O)Nc4cccc(F)c4)[nH]n3)ncnc2c1)CCOP(=O)(O)O [barasertib]
Summary of the method: as §1

[7] = compound: CC[C@@H]1C(=O)N(C)c2cnc(Nc3ccc(C(=O)NC4CCN(C)CC4)cc3OC)nc2N1C1CCCC1
Summary of the method: as §1

volasertib = compound: CC[C@@H]1C(=O)N(C)c2cnc(Nc3ccc(C(=O)N[C@H]4CC[C@H](N5CCN(CC6CC6)CC5)CC4)cc3OC)nc2N1C(C)C [volasertib]
Summary of the method: as §1

[8] = compound: CC[C@H](C)N1C=C(C2=C(C=C(C=C21)C3=CN=C(C=C3)N4CCNCC4)C(=O)NCC5=C(C=C(NC5=O)C)C)C
Summary of the method: as §1

epoxomicin = compound: CC[C@H](C)[C@@H](C(=O)N[C@@H]([C@@H](C)O)C(=O)N[C@@H](CC(C)C)C(=O)[C@]1(CO1)C)NC(=O)[C@H]([C@@H](C)CC)N(C)C(=O)C [epoxomicin]
Summary of the method: as §1

[9] = compound: CCn1c(C(=O)N(C2CC2)C2CC2)cc2c3c(ncn3C)c(Nc3cc(C)n(C)n3)nc21
Summary of the method: as §1

[10] = compound: CCn1cc(-c2ccnc3[nH]c(-c4cccc(CN(C)C)c4)cc23)c(-c2ccc(NC(=O)N(C)C)cc2)n1
Summary of the method: as §1

[11] = compound: CN(C)CC(=O)Nc1ccc2[nH]c(=O)c3ccccc3c2c1
Summary of the method: as §1

rosiglitazone = compound: CN(CCOC1=CC=C(C=C1)C[C@H]2C(=O)NC(=O)S2)C3=CC=CC=N3 (racemic) [rosiglitazone]
Summary of the method: as §1

[12] = compound: CN1C2=C(C3=C1C(=O)N(N=C3)CC4=CC(=CC=C4)N)SC(=C2)S(=O)C
Summary of the method: as §1

[13] = compound: CN1CCC(CNc2ccc3ncc(-c4cccc(OC(F)(F)F)c4)n3n2)CC1
Summary of the method: as §1

Row | Target | log2 fold change [1] | log2 fold change [2] | log2 fold change [3] | log2 fold change [4] | log2 fold change (Nexturastat A) | log2 fold change (vemurafenib) | log2 fold change [5] | log2 fold change [6] | log2 fold change (givinostat) | log2 fold change (barasertib) | log2 fold change [7] | log2 fold change (volasertib) | log2 fold change [8] | log2 fold change (epoxomicin) | log2 fold change [9] | log2 fold change [10] | log2 fold change [11] | log2 fold change (rosiglitazone) | log2 fold change [12] | log2 fold change [13]
1 | ANP32B (UniProt Q92688) | inactive: -0.069 | inactive: 0.009 | inactive: 0.004 | inactive: 0.02 | inactive: -0.034 | inactive: 0.001 | inactive: 0 | inactive: -0.024 | inactive: 0.002 | inactive: 0.017 | inactive: -0.052 | inactive: -0.095 | inactive: 0.007 | inactive: -0.014 | inactive: 0.001 | inactive: -0.027 | inactive: 0.016 | inactive: 0.037 | inactive: -0.058 | inactive: -0.066
2 | ARF1 (UniProt P84077) | inactive: 0.023 | inactive: 0.005 | inactive: 0.038 | inactive: -0.019 | inactive: -0.173 | inactive: -0.043 | inactive: -0.004 | inactive: 0.016 | inactive: -0.132 | inactive: 0.018 | inactive: -0.006 | inactive: 0.013 | inactive: 0.112 | inactive: -0.24 | inactive: -0.132 |  | inactive: 0.003 | inactive: -0.058 | inactive: -0.112 | 
3 | APOA1 (UniProt P02647) | inactive: -0.113 | inactive: -0.001 | inactive: -0.019 | inactive: 0.063 | inactive: -0.132 | inactive: 0.12 | inactive: -0.268 | inactive: -0.051 | inactive: -0.073 | inactive: 0.017 | inactive: 0.124 | inactive: 0.083 | inactive: -0.044 | inactive: -0.425 | inactive: 0.048 | inactive: -0.067 | inactive: -0.008 | inactive: 0.154 | inactive: 0.094 | inactive: -0.03
4 | AP5Z1 (UniProt O43299) | inactive: -0.092 | inactive: 0.017 | inactive: -0.027 | inactive: -0.252 | inactive: 0.08 | inactive: -0.081 | inactive: -0.094 | inactive: 0.11 | inactive: 0.092 | inactive: -0.024 | inactive: -0.012 | inactive: 0.094 | inactive: 0.031 | inactive: -0.167 | inactive: -0.062 | inactive: -0.233 | inactive: -0.042 | inactive: 0.416 | inactive: 0.007 | inactive: -0.175
5 | APOO (UniProt Q9BUR5) | inactive: -0.032 | inactive: 0.021 | inactive: 0.037 | inactive: 0.029 | inactive: -0.081 | inactive: -0.001 | inactive: 0.024 | inactive: -0.053 | inactive: 0.019 | inactive: 0.001 | inactive: -0.022 | inactive: 0.042 | inactive: -0.021 | inactive: 0.032 | inactive: 0.007 | inactive: 0.073 | inactive: -0.014 | inactive: 0.021 | inactive: 0.033 | inactive: -0.107
6 | APOOL (UniProt Q6UXV4) | inactive: 0.032 | inactive: 0.03 | inactive: -0.009 | inactive: 0.015 | inactive: -0.031 | inactive: -0.032 | inactive: -0.014 | inactive: -0.013 | inactive: -0.006 | inactive: -0.003 | inactive: 0.01 | inactive: 0.034 | inactive: -0.056 | inactive: -0.042 | inactive: 0.018 | inactive: -0.007 | inactive: -0.049 | inactive: -0.012 | inactive: -0.029 | inactive: 0.009
7 | AP2M1 (UniProt Q96CW1) | inactive: 0.022 | inactive: -0.019 | inactive: -0.023 | inactive: 0.002 | inactive: 0.073 | inactive: -0.006 | inactive: 0.014 | inactive: -0.049 | inactive: 0.031 | inactive: -0.074 | inactive: 0.072 | inactive: -0.041 | inactive: 0 | inactive: 0.002 |  | inactive: -0.006 | inactive: -0.046 |  | inactive: 0.023 | inactive: 0.006
8 | AP3D1 isoform 5 (UniProt O14617) | inactive: 0.022 | inactive: -0.051 | inactive: 0.039 | inactive: 0.022 | inactive: 0.039 | inactive: 0.102 | inactive: 0.099 | inactive: 0.008 | inactive: 0.02 | inactive: 0.009 | inactive: -0.032 | inactive: -0.156 | inactive: 0.005 | inactive: -0.007 | inactive: -0.028 | inactive: -0.035 | inactive: 0.048 | inactive: 0.052 | inactive: 0.024 | inactive: -0.173
9 | AP1B1 (UniProt Q10567) | inactive: 0.01 | inactive: -0.017 | inactive: 0.071 | inactive: -0.009 | inactive: -0.048 | inactive: 0.017 | inactive: 0.11 | inactive: -0.049 | inactive: 0.019 | inactive: 0.007 | inactive: -0.005 | inactive: -0.053 | inactive: 0.009 | inactive: -0.012 | inactive: -0.005 | inactive: -0.001 | inactive: 0.016 | inactive: 0.013 | inactive: -0.042 | inactive: 0.008
10 | ANP32E (UniProt Q9BTT0) | inactive: 0.041 | inactive: -0.098 | inactive: 0.091 | inactive: -0.02 | inactive: -0.11 | inactive: 0.091 | inactive: 0.035 | inactive: -0.001 | inactive: 0.112 | inactive: 0.076 | inactive: -0.132 | active: -0.499 | inactive: 0.04 | inactive: 0.054 |  | inactive: -0.128 | inactive: -0.051 |  | inactive: -0.058 | inactive: -0.147
11 | ANK1 isoform 14 (UniProt P16157) | inactive: 0.047 | inactive: 0.089 | inactive: -0.079 | inactive: -0.136 | inactive: 0.332 | inactive: 0.033 | inactive: -0.063 | inactive: 0.107 | inactive: 0.258 | inactive: 0.061 | inactive: 0.153 | inactive: -0.103 | inactive: 0.022 | inactive: -0.175 | inactive: 0.034 | inactive: 0.198 | inactive: 0.021 | inactive: 0.064 | inactive: 0.366 | inactive: -0.044
12 | APLP2 (UniProt Q06481) | inactive: 0.088 | inactive: -0.043 | inactive: -0.003 | inactive: -0.009 | inactive: -0.053 | inactive: -0.033 | inactive: 0.011 | inactive: 0.018 | inactive: -0.041 | inactive: -0.04 | inactive: 0.076 | inactive: -0.04 | inactive: -0.092 | inactive: 0.017 |  | inactive: 0.006 | inactive: -0.106 |  | inactive: -0.004 | inactive: 0.179
13 | ANXA11 (UniProt P50995) | inactive: 0.038 | inactive: -0.054 | inactive: 0.019 | inactive: 0.047 | inactive: -0.056 | inactive: 0.068 | inactive: 0.053 | inactive: 0 | inactive: 0.065 | inactive: 0.027 | inactive: -0.075 | inactive: -0.125 | inactive: 0.073 | inactive: 0.063 | inactive: -0.002 | inactive: -0.091 | inactive: 0.079 | inactive: 0.022 | inactive: -0.06 | inactive: -0.056
14 | APEX1 (UniProt P27695) | inactive: 0.045 | inactive: -0.071 | inactive: 0.03 | inactive: 0.068 | inactive: -0.038 | inactive: 0.039 | inactive: 0.065 | inactive: 0.101 | inactive: 0.001 | inactive: 0.021 | inactive: -0.033 | inactive: -0.034 | inactive: 0.063 | inactive: 0.02 | inactive: 0.021 | inactive: -0.064 | inactive: 0.019 | inactive: 0.051 | inactive: -0.011 | inactive: 0.03
15 | ARFGAP2 (UniProt Q8N6H7) | inactive: 0.03 | inactive: -0.065 | inactive: -0.027 | inactive: -0.04 | inactive: -0.033 | inactive: 0.02 | inactive: 0.033 | inactive: 0.021 | inactive: 0.06 | inactive: 0.066 | inactive: -0.052 | active: -0.257 | inactive: 0.067 | inactive: 0.009 |  | inactive: 0.023 | inactive: 0.017 |  | inactive: -0.015 | inactive: -0.068
16 | ANXA1 (UniProt P04083) | inactive: 0.109 | inactive: -0.112 | inactive: 0.024 | inactive: 0.056 | inactive: -0.007 | inactive: 0.046 | inactive: 0.048 | inactive: 0.016 | inactive: 0.077 | inactive: 0.064 | inactive: -0.114 | inactive: -0.193 | inactive: 0.047 | inactive: 0.102 | inactive: -0.038 | inactive: -0.046 | inactive: 0.036 | inactive: 0.071 | inactive: -0.001 | inactive: -0.18
17 | ARF6 (UniProt P62330) | inactive: 0 | inactive: -0.033 | inactive: 0.021 | inactive: 0.033 | inactive: -0.076 | inactive: -0.009 | inactive: 0.022 | inactive: -0.075 | inactive: 0.018 | inactive: -0.001 | inactive: 0.06 | inactive: -0.071 | inactive: -0.059 | inactive: -0.007 | inactive: -0.008 | inactive: -0.109 | inactive: -0.052 | inactive: 0.061 | inactive: -0.124 | inactive: 0.057

Retrieved one by one from above, 2 records:
Row | Target | log2 fold change [1] | log2 fold change [2] | log2 fold change [3] | log2 fold change [4] | log2 fold change (Nexturastat A) | log2 fold change (vemurafenib) | log2 fold change [5] | log2 fold change [6] | log2 fold change (givinostat) | log2 fold change (barasertib) | log2 fold change [7] | log2 fold change (volasertib) | log2 fold change [8] | log2 fold change (epoxomicin) | log2 fold change [9] | log2 fold change [10] | log2 fold change [11] | log2 fold change (rosiglitazone) | log2 fold change [12] | log2 fold change [13]
1 | ANP32B (UniProt Q92688) | inactive: -0.069 | inactive: 0.009 | inactive: 0.004 | inactive: 0.02 | inactive: -0.034 | inactive: 0.001 | inactive: 0 | inactive: -0.024 | inactive: 0.002 | inactive: 0.017 | inactive: -0.052 | inactive: -0.095 | inactive: 0.007 | inactive: -0.014 | inactive: 0.001 | inactive: -0.027 | inactive: 0.016 | inactive: 0.037 | inactive: -0.058 | inactive: -0.066
4 | AP5Z1 (UniProt O43299) | inactive: -0.092 | inactive: 0.017 | inactive: -0.027 | inactive: -0.252 | inactive: 0.08 | inactive: -0.081 | inactive: -0.094 | inactive: 0.11 | inactive: 0.092 | inactive: -0.024 | inactive: -0.012 | inactive: 0.094 | inactive: 0.031 | inactive: -0.167 | inactive: -0.062 | inactive: -0.233 | inactive: -0.042 | inactive: 0.416 | inactive: 0.007 | inactive: -0.175
